Test results from article PMC6888122.
These are yes or no findings as the source states them, for the method shown. In cells and extracts the contact can be indirect. Binding can be weak; no strength is given. Tags and fused reporters may be left off the sequences shown.

Biological target: HA-HUNK (Hormonally Upregulated Neu-associated Kinase), wildtype
Experiment: co-IP; 293T cells co-transfected with HA-HUNK and one Beclin-1 complex member each; HUNK immunoprecipitated with anti-HA antibody on resin, lysates rotated overnight at 4 °C, beads washed 3-4 times in lysis buffer (50 mM Tris-HCl pH 7.5, 150 mM NaCl, 1 mM EDTA, 1% Triton X-100); partners detected by anti-Flag or anti-GFP immunoblot and by antibodies to each member

binding: binds
B1: Flag-Rubicon, wildtype (protein, UniProt Q92622 1-972)
chain: MRPEGAGMELGGGEERLPEESRREHWQLLGNLKTTVEGLVSTNSPNVWSKYGGLERLCRDMQSILYHGLIRDQACRRQTDYWQFVKDIRWLSPHSALHVEKFISVHENDQSSADGASERAVAELWLQHSLQYHCLSAQLRPLLGDRQYIRKFYTDAAFLLSDAHVTAMLQCLEAVEQNNPRLLAQIDASMFARKHESPLLVTKSQSLTALPSSTYTPPNSYAQHSYFGSFSSLHQSVPNNGSERRSTSFPLSGPPRKPQESRGHVSPAEDQTIQAPPVSVSALARDSPLTPNEMSSSTLTSPIEASWVSSQNDSPGDASEGPEYLAIGNLDPRGRTASCQSHSSNAESSSSNLFSSSSSQKPDSAASSLGDQEGGGESQLSSVLRRSSFSEGQTLTVTSGAKKSHIRSHSDTSIASRGAPESCNDKAKLRGPLPYSGQSSEVSTPSSLYMEYEGGRYLCSGEGMFRRPSEGQSLISYLSEQDFGSCADLEKENAHFSISESLIAAIELMKCNMMSQCLEEEEVEEEDSDREIQELKQKIRLRRQQIRTKNLLPMYQEAEHGSFRVTSSSSQFSSRDSAQLSDSGSADEVDEFEIQDADIRRNTASSSKSFVSSQSFSHCFLHSTSAEAVAMGLLKQFEGMQLPAASELEWLVPEHDAPQKLLPIPDSLPISPDDGQHADIYKLRIRVRGNLEWAPPRPQIIFNVHPAPTRKIAVAKQNYRCAGCGIRTDPDYIKRLRYCEYLGKYFCQCCHENAQMAIPSRVLRKWDFSKYYVSNFSKDLLIKIWNDPLFNVQDINSALYRKVKLLNQVRLLRVQLCHMKNMFKTCRLAKELLDSFDTVPGHLTEDLHLYSLNDLTATRKGELGPRLAELTRAGATHVERCMLCQAKGFICEFCQNEDDIIFPFELHKCRTCEECKACYHKACFKSGSCPRCERLQARREALARQSLESYLSDYEEEPAEALALEAAVLEAT
